Measured values published in PMC4424349.
These are yes or no findings as the source states them, for the method shown. Binding seen in cells or lysates may run through a third protein. Where a sequence is shown, tags or fusion partners need not be part of it.

Target: T1, PfMyoB-GFP (Plasmodium falciparum myosin B with C-terminal GFP) (Plasmodium falciparum 3D7), Q8I465
T1 chain: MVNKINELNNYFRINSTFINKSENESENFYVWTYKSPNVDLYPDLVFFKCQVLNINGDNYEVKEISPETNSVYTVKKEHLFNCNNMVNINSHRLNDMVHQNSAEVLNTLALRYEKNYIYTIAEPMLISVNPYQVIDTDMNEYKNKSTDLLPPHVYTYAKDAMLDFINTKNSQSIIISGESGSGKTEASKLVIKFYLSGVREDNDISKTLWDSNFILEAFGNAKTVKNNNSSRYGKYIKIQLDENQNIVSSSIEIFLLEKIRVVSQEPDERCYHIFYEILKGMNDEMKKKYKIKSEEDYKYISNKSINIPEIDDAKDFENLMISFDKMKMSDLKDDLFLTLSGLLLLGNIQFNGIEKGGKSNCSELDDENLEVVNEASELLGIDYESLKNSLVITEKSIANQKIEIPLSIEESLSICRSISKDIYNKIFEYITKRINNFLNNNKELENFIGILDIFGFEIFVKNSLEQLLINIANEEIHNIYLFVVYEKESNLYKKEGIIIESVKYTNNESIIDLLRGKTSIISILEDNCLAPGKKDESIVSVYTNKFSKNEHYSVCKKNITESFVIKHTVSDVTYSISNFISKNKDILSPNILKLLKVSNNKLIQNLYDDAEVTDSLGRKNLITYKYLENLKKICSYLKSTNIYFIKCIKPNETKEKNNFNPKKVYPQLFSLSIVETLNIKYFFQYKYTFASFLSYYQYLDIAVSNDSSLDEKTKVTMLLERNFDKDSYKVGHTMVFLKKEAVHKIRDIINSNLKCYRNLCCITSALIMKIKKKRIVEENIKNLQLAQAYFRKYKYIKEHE
Experiment: co-IP; GFP-Trap agarose beads on schizont lysates (0.5% Nonidet P-40, 150 mM NaCl, 10 mM Tris-HCl pH 7.5, diluted to 0.2% detergent), 2 h at 4 °C, washes with 150 mM and 300 mM NaCl; Western blot with anti-GFP, anti-GAP50, anti-GAP45, anti-MTIP; 3D7 lysate as control
Settings: remark: other sources report otherwise

B1: myosin A tail domain-interacting protein (MTIP), Q8I4W8 1-204 (protein)
chain: MKQECNVCYFNLPDPESTLGPYDNELNYFTWGPGFEYEPEPQRKPLSIEESFENSEESEESVADIQQLEEKVDESDVRIYFNEKSSGGKISIDNASYNARKLGLAPSSIDEKKIKELYGDNLTYEQYLEYLSICVHDKDNVEELIKMFAHFDNNCTGYLTKSQMKNILTTWGDALTDQEAIDALNAFSSEDNIDYKLFCEDILQ
binding: no binding
